Source: patent US20030113743A1
These are yes or no findings as the source states them, for the method shown. Some results given as binding are weak or reduced against the parent protein; the word gives no strength.

Amino acid sequences for entries named in this document (tags omitted). A change or cut given only in a name is not applied to a line headed by its entry.
UniProt P20151: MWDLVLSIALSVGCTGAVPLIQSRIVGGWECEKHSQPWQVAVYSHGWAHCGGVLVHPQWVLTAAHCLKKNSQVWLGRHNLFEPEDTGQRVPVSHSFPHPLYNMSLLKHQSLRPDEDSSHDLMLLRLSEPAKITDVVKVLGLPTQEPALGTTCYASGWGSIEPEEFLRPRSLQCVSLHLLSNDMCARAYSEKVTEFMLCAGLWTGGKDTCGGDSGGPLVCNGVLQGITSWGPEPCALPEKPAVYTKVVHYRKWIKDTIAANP
UniProt P07288: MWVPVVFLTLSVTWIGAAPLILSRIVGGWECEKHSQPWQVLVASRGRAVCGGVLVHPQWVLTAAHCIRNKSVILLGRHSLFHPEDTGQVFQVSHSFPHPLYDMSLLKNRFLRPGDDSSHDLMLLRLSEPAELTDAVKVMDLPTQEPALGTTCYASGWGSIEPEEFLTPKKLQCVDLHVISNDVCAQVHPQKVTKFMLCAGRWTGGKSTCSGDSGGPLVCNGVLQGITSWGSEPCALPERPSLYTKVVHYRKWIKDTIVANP

Experiments:
[1] = biological target: wild type mature hK2 (prostate-specific glandular kallikrein protein) (human) (UniProt P20151); experiment: hK2 spiked into human serum, Western blot
[2] = biological target: prostate-specific antigen protein, hK3 (PSA) (human) (UniProt P07288); experiment: protease spiked into human serum, Western blot
[3] = biological target: wild type mature hK2 (prostate-specific glandular kallikrein protein) (human) (UniProt P20151); experiment: protease spiked into human serum, Western blot
[4] = biological target: prostate-specific antigen protein, hK3 (PSA) (human) (UniProt P07288); experiment: covalent complex formation, SDS-PAGE and Western blot
[5] = biological target: wild type mature hK2 (prostate-specific glandular kallikrein protein) (human) (UniProt P20151); experiment: covalent complex formation, SDS-PAGE and Western blot with HK1G586.1

binding [1]: binds
binding [2]: binds
binding [3]: binds
binding [4]: binds
binding [5]: binds
B1: α2 macroglobulin (MG) (protein, human, UniProt P01023 24-1474, looked up)
chain: SVSGKPQYMVLVPSLLHTETTEKGCVLLSYLNETVTVSASLESVRGNRSLFTDLEAENDVLHCVAFAVPKSSSNEEVMFLTVQVKGPTQEFKKRTTVMVKNEDSLVFVQTDKSIYKPGQTVKFRVVSMDENFHPLNELIPLVYIQDPKGNRIAQWQSFQLEGGLKQFSFPLSSEPFQGSYKVVVQKKSGGRTEHPFTVEEFVLPKFEVQVTVPKIITILEEEMNVSVCGLYTYGKPVPGHVTVSICRKYSDASDCHGEDSQAFCEKFSGQLNSHGCFYQQVKTKVFQLKRKEYEMKLHTEAQIQEEGTVVELTGRQSSEITRTITKLSFVKVDSHFRQGIPFFGQVRLVDGKGVPIPNKVIFIRGNEANYYSNATTDEHGLVQFSINTTNVMGTSLTVRVNYKDRSPCYGYQWVSEEHEEAHHTAYLVFSPSKSFVHLEPMSHELPCGHTQTVQAHYILNGGTLLGLKKLSFYYLIMAKGGIVRTGTHGLLVKQEDMKGHFSISIPVKSDIAPVARLLIYAVLPTGDVIGDSAKYDVENCLANKVDLSFSPSQSLPASHAHLRVTAAPQSVCALRAVDQSVLLMKPDAELSASSVYNLLPEKDLTGFPGPLNDQDNEDCINRHNVYINGITYTPVSSTNEKDMYSFLEDMGLKAFTNSKIRKPKMCPQLQQYEMHGPEGLRVGFYESDVMGRGHARLVHVEEPHTETVRKYFPETWIWDLVVVNSAGVAEVGVTVPDTITEWKAGAFCLSEDAGLGISSTASLRAFQPFFVELTMPYSVIRGEAFTLKATVLNYLPKCIRVSVQLEASPAFLAVPVEKEQAPHCICANGRQTVSWAVTPKSLGNVNFTVSAEALESQELCGTEVPSVPEHGRKDTVIKPLLVEPEGLEKETTFNSLLCPSGGEVSEELSLKLPPNVVEESARASVSVLGDILGSAMQNTQNLLQMPYGCGEQNMVLFAPNIYVLDYLNETQQLTPEIKSKAIGYLNTGYQRQLNYKHYDGSYSTFGERYGRNQGNTWLTAFVLKTFAQARAYIFIDEAHITQALIWLSQRQKDNGCFRSSGSLLNNAIKGGVEDEVTLSAYITIALLEIPLTVTHPVVRNALFCLESAWKTAQEGDHGSHVYTKALLAYAFALAGNQDKRKEVLKSLNEEAVKKDNSVHWERPQKPKAPVGHFYEPQAPSAEVEMTSYVLLAYLTAQPAPTSEDLTSATNIVKWITKQQNAQGGFSSTQDTVVALHALSKYGAATFTRTGKAAQVTIQSSGTFSSKFQVDNNNRLLLQQVSLPELPGEYSMKVTGEGCVYLQTSLKYNILPEKEEFPFALGVQTLPQTCDEPKAHTSFQISLSVSYTGSRSASNMAIVDVKMVSGFIPLKPTVKMLERSNHVSRTEVSSNHVLIYLDKVSNQTLSLFFTVLQDVPVRDLKPAIVKVYDYYETDEFAIAEYNAPCSKDLGNA
